Hit rate of the full screen: of about 350,000 compounds, about 220 (0.063%) were called active. Inconclusive results, whose numbers are uncertain, are shown with a selection of clear calls. The call rests on the fitted dose curve; in most records, active means well fitted activation curve with a large enough effect; inconclusive means small, poorly fitted or top-dose-only effect; inactive means no such curve, though single readings can be large or run the other way. A potency beside an inconclusive call is a rough fit, not a confirmed value.
assay: qHTS for Activators of Integrin-Mediated Alleviation for Muscular Dystrophy; conditions: alpha7betagal myoblasts, beta-gal FDG fluorescence, 48 h; activation: at 38.3 µM (top of the series); further: nearly all actives have a fitted effect of over 60% in size;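 on activation: 100% = response of the positive control SU9516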
Summary of the method: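 alpha7betagal+/- myoblasts (passage 13, 250/well) treated 48 h at 37C with compounds at 1:260 dilution of DMSO stock. Lysed, then beta-galactosidase activity read as FDG fluorescence (ex 480/em 540) after 30 min, with pre-read for autofluorescence.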
Potency means the concentration at half of the fitted maximal effect.

SMILES	Potency	activation
Cc1ccc(NS(=O)(=O)c2ccc3c(c2)oc(=O)n3C)cc1	inactive	–
COc1ccc(S(=O)(=O)c2c[nH]c(=S)[nH]c2=O)cc1Cl	inconclusive: 1.12 µM [activator, partial curve, poor fit]	–
O=C(NNS(=O)(=O)c1ccccc1[N+](=O)[O-])c1cc2ccccc2cc1O	inconclusive: 0.501 µM [activator, full curve, poor fit]	–
COc1ccc(CCNCc2csc3nc4ccccc4n23)cc1OC	inactive	–
O=C(CSc1n[nH]c(-c2ccccc2Cl)n1)NCc1cccc(C(=O)O)c1	inconclusive: 4.47 µM [activator, single point]	–
CC(C)c1cc(C(C)C)c(S(=O)(=O)N2c3ccccc3[C@@]3(Br)C[C@H]4C(=O)N[C@@H](Cc5ccccc5)C(=O)N4[C@@H]23)c(C(C)C)c1	inactive	–
Cc1ccc(CC2CC(=O)N(c3nc(C)cc(C)n3)C2=O)cc1 (configuration not stated)	inconclusive: 3.55 µM [activator, single point]	–
CC1Sc2ccc(C(=O)OCc3ccccc3Cl)cc2NC1=O (configuration not stated)	inactive	–
Cc1ccc(C)c(NC(=S)N2CCN(Cc3ccccc3)CC2)c1	inconclusive: 1 µM [activator, partial curve, poor fit]	–
COC(=O)Cn1cnc2c(cnn2-c2ccccc2)c1=O	inconclusive: 1.58 µM [activator, partial curve, poor fit]	–
CCOC(=O)C1(C)NC(c2ccc(N(C)C)cc2)C2C(=O)N(c3ccc(OC)cc3)C(=O)C21 (configuration not stated)	inactive	–
O=C(N1CCN(Cc2ccc3c(c2)OCO3)CC1)C12CC3CC(CC(C3)C1)C2	inconclusive: 14.1 µM [activator, single point]	–
CC(C)C(C(=O)Nc1ccc(S(N)(=O)=O)cc1)N1C(=O)c2ccccc2C1=O (configuration not stated)	inconclusive: 28.2 µM [activator, single point]	–
Cn1c(=NC(=O)COc2ccccc2)sc2cc(F)cc(F)c21	inconclusive: 28.2 µM [activator, single point]	–
CC1CCN(Cc2c(C(=O)N/N=C/c3ccccc3O)nnn2-c2nonc2N)CC1	inactive	–
O=C(Cn1cnc2ccccc2c1=O)Nc1ccc2c(c1)OCCO2	inconclusive: 22.4 µM [activator, single point]	–
O=C(COc1ccccc1[N+](=O)[O-])Nc1cc(C(=O)O)cc(C(=O)O)c1	inconclusive: 28.2 µM [activator, single point]	–
O=C(NCCS(=O)(=O)NCC1CCCO1)c1ccccc1 (configuration not stated)	inconclusive: 28.2 µM [activator, single point]	–
CN(C)C(=O)c1ccccc1NC(=O)Cc1cccc2ccccc12	inconclusive: 1.78 µM [activator, partial curve, poor fit]	–
O=C1CCC(C(=O)N2CCSCC2)CN1Cc1ccc(Cl)cc1 (configuration not stated)	inconclusive: 3.98 µM [activator, partial curve, poor fit]	–
COc1ccc(CNC(=O)NC2CCCCC2)cc1	inactive	–
O=P(Nc1ccccc1)(Nc1ccccc1)c1ccccc1	inconclusive: 5.01 µM [activator, single point]	–
CCn1c(SCC(=O)Nc2cccc(C)c2)nc2ccccc2c1=O	inconclusive: 28.2 µM [activator, single point]	–

SMILES	Potency	activation
CC12CCC(=O)N1C(C(=O)Nc1nc3ccc(S(C)(=O)=O)cc3s1)CS2 (configuration not stated)	inconclusive: 10 µM [activator, single point]	–
Cc1cc(C)c2c(NC(N)=S)n[nH]c2n1	inconclusive: 22.4 µM [activator, single point]	–
C/C(=C\c1ccccc1)C1NC(=O)c2c(sc3c2CCCC3)N1 (configuration not stated)	inconclusive: 0.1 µM [activator, full curve, poor fit]	–
CCC(C)Cn1cnc2c(SCc3ccccn3)nc(N)nc21 (configuration not stated)	inactive	–
O=C(Nc1ncc2c(n1)-c1ccccc1CC2)c1ccc(F)cc1	inconclusive: 2.24 µM [activator, full curve]	–
CC1Cc2ccccc2N1C(=O)CSc1nnc2c(n1)[nH]c1ccc(F)cc12 (configuration not stated)	inactive	–
O=C(Nc1ncccc1O)c1ccc(Oc2ccccc2)cc1	inconclusive: 0.501 µM [activator, full curve, poor fit]	–
O=C(CC(NC(=O)C(F)(F)F)c1ccccc1)Nc1nnc(CCc2ccccc2)s1 (configuration not stated)	inconclusive: 20 µM [activator, partial curve, poor fit]	–
O=C(CN1CCN(c2ccc(O)cc2)CC1)Nc1cc(S(=O)(=O)N2CCOCC2)ccc1Cl	inconclusive: 5.01 µM [activator, single point]	–
CCS(=O)(=O)c1ccc(O)c(NC(=O)c2cc(-c3ccccn3)nc3ccccc23)c1	inconclusive: 5.01 µM [activator, single point]	–
COC(=O)c1ccc(C(=O)OC)c(NC(=S)N2CCCC(C)C2)c1 (configuration not stated)	inconclusive: 0.501 µM [activator, full curve, poor fit]	–
O=C(CSc1ccc(-c2cccc([N+](=O)[O-])c2)nn1)N1CCCCCC1	inconclusive: 3.16 µM [activator, single point]	–
CCN(CC)C(=O)Cn1cc(C(=O)C(=O)NCc2ccccn2)c2ccccc21	inconclusive: 5.01 µM [activator, single point]	–
CN1c2ccccc2C(=O)/C(=C\Nc2ncccn2)S1(=O)=O	inactive	–
O=C(Nc1nc(-c2ccccn2)cs1)c1ccccc1-n1cnnn1	inactive	–
O=C(c1ccc(-c2nc3ccccc3s2)s1)N1CCOCC1	inconclusive: 3.98 µM [activator, single point]	–
NNC(=O)c1sccc1OCc1ccc(F)cc1	inconclusive: 15.8 µM [activator, single point]	–
CCOC(=O)c1c(S(=O)(=O)NCc2ccc(C)o2)c(C)n(C)c1C	inconclusive: 0.316 µM [activator, full curve, poor fit]	–
CCOc1ccc(CNCCCSc2ncccn2)cc1OC	inconclusive: 22.4 µM [activator, single point]	–
CC(=O)Oc1ccc(C(=O)Nc2ccc(S(=O)(=O)NCC3CCCO3)cc2)cc1 (configuration not stated)	inconclusive: 3.16 µM [activator, single point]	–
CN(C)S(=O)(=O)c1cccc(C(=O)NC(=S)N(CCC#N)Cc2cccnc2)c1	inconclusive: 3.16 µM [activator, partial curve, poor fit]	–
COc1ccccc1N=C1NC(=O)/C(=C/c2ccc(N(C)C)cc2)S1	inconclusive: 1.58 µM [activator, partial curve, poor fit]	–
C#CCN1C(=O)S/C(=C\c2ccc(-c3ccc(Cl)c(C(=O)O)c3)o2)C1=O	inactive	–

SMILES	Potency	activation
O=C(CSc1nnc(-c2ccncc2)n1Cc1ccco1)Nc1cccc(O)c1	inconclusive: 5.01 µM [activator, single point]	–
CC(=O)Nc1ccc(CN2CCCN(C)CC2)cc1	inconclusive: 5.01 µM [activator, single point]	–
Cc1ccc(C(C)(C)C)c(SCC(=O)Nc2nnc(C)s2)c1	inconclusive: 0.891 µM [activator, partial curve, poor fit]	–
O=C(c1cccc(F)c1)N1CCN(Cc2c[nH]c3ccccc23)CC1	inactive	–
Cc1c(C(=O)N(Cc2ccc(N(C)C)cc2)CC2CCCO2)oc2ccccc12 (configuration not stated)	inconclusive: 5.01 µM [activator, single point]	–
CCOC(=O)C(=O)NCC(c1cccs1)S(=O)(=O)c1ccc(C)cc1 (configuration not stated)	inconclusive: 28.2 µM [activator, single point]	–
CC(=O)c1cccc(NS(=O)(=O)c2ccc3c(c2)N(C(C)=O)CCO3)c1	inconclusive: 17.8 µM [activator, single point]	–
O=C(N/N=C/c1ccc(N2CCCCC2)o1)c1ccccc1	inactive	–
Cc1ccc(C(=O)NC(=S)NNC(=O)CCN2CCOCC2)cc1	inactive	–
O=C1NC(=O)c2cc(Br)cc3cccc1c23	inactive	–
CCC(O)(c1ccc(OC)cc1)C(CN1CCOCC1)c1ccccc1 (configuration not stated)	inconclusive: 28.2 µM [activator, single point]	–
Cc1ccc(N2CCN(/N=C/c3cccnc3)CC2)cc1	inconclusive: 3.16 µM [activator, partial curve, poor fit]	–
CC(NC(=O)C1CCCN1S(=O)(=O)c1cccc2nsnc12)c1ccccc1 (configuration not stated)	inconclusive: 4.47 µM [activator, partial curve, poor fit]	–
CN(C)S(=O)(=O)c1ccc(N2CCOCC2)c(C(=O)NCc2ccc3c(c2)OCO3)c1	–	inconclusive: 13.4% [activator]
CC1CCCN(Cc2cccc(Oc3ccccc3)c2)C1 (configuration not stated)	inactive	–
Cc1c(C(=O)Nc2c(C)n(C)n(-c3ccccc3)c2=O)oc2ccc(Cl)cc12	inconclusive: 10 µM [activator, single point]	–
CSCCC(NS(=O)(=O)c1ccccc1)C(=O)OCc1cc(=O)oc2cc(O)ccc12 (configuration not stated)	inactive	–
CCOc1ccc(NC(=O)C2CC(=O)N(CC)C(=Nc3ccc4c(c3)OCO4)S2)cc1 (configuration not stated)	inconclusive: 15.8 µM [activator, single point]	–
Cn1cc(/C=C2\SC(=S)N(N3CCOCC3)C2=O)c2ccccc21	inconclusive: 6.31 µM [activator, partial curve, poor fit]	–
CCOc1cc(N2CCOCC2)c(OCC)cc1NC(=O)c1ccco1	inconclusive: 28.2 µM [activator, single point]	–
COCCN(CC(=O)NC1CCCCC1)C(=O)/C=C/C(=O)c1ccc(OC)cc1O	–	inconclusive: -67.6% [activator]

Shown in markdown: part of the list above.

| SMILES | Potency | activation |
| --- | --- | --- |
| CSCCC(NS(=O)(=O)c1ccccc1)C(=O)OCc1cc(=O)oc2cc(O)ccc12 (configuration not stated) | inactive | – |
| CCOc1ccc(NC(=O)C2CC(=O)N(CC)C(=Nc3ccc4c(c3)OCO4)S2)cc1 (configuration not stated) | inconclusive: 15.8 µM [activator, single point] | – |
| Cn1cc(/C=C2\SC(=S)N(N3CCOCC3)C2=O)c2ccccc21 | inconclusive: 6.31 µM [activator, partial curve, poor fit] | – |
| CCOc1cc(N2CCOCC2)c(OCC)cc1NC(=O)c1ccco1 | inconclusive: 28.2 µM [activator, single point] | – |

From PubChem BioAssay AID624291 (National Center for Advancing Translational Sciences (NCATS), 2012)
